One substance from publication PMC6997074 can be followed below.

Chains of the proteins cited; added tags and fusions are not shown.
UniProt P48431: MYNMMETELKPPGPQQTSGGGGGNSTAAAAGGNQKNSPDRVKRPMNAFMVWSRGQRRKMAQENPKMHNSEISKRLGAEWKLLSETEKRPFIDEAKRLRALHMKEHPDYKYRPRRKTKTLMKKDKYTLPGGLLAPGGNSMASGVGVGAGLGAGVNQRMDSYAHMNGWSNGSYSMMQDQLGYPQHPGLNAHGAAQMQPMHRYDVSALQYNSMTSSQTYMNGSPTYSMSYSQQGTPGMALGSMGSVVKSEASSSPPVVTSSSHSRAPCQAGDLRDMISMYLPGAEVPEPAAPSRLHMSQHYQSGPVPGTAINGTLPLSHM

These are yes or no findings as the source states them, for the method shown. Binding seen in cells or lysates may run through a third protein. Here binding means that the protein was enriched with, or labelled near, the bait; the list need not be complete.

The target in the assay is Epidermal growth factor receptor (human (endogenous in CAL-27)) (UniProt P00533). Nature of the assay: affinity purification with mass spectrometry; CAL-27 cells treated with EGF (100 ng/mL) for 30 min; whole cell lysates immunoprecipitated with an anti-EGFR antibody (Pierce CO-IP Kit); SDS-PAGE, bands cut, LC-MS/MS.

SOX2 (from UniProt P48431 1-317): the binding entry was “binds”.
